Test results taken from publication PMC10638775.
Construct, isoform or probe ends are uncertain for at least one entry. Results from cells or extracts need not show a direct contact.

Protein sequences, listed by entry. Tags and fused reporters are not part of them. Residues count along the entry.
UniProt P16092, 22-822: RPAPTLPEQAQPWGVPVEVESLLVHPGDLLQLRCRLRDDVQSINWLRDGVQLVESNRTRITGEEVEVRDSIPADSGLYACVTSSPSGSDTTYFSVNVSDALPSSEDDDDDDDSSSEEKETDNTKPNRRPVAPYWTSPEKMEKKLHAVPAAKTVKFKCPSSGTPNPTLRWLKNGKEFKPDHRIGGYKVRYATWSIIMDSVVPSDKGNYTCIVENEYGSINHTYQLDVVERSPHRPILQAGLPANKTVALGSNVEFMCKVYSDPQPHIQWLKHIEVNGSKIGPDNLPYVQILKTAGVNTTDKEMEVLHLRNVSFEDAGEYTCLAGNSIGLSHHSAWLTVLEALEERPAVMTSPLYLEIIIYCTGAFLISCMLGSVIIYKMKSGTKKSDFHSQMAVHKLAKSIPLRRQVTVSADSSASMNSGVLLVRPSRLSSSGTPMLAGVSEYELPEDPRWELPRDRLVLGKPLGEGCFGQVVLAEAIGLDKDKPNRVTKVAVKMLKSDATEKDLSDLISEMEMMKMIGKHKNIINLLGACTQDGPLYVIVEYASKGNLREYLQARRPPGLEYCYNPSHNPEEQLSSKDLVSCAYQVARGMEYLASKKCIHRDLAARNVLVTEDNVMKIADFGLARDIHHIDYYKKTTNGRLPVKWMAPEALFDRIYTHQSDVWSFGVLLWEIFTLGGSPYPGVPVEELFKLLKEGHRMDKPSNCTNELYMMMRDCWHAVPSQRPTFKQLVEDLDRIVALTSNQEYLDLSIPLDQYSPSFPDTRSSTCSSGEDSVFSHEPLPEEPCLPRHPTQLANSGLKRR

Target: FGFR1 on NIH3T3 cells (mouse (NIH3T3 fibroblasts)) (UniProt P16092)
Assay: flow cytometry
Details: increased binding fraction vs binder, flow cytometry: PBS, 1% BSA, 0.1% sodium azide, room temperature, protein on the cell surface, folded or branched DNA

“GCCGCGTCTTTATGGCTGGGGATGGTGTGGGTTGCGGCGCCGCGTCTTTATGGCTGGGGATGGTGTGGGTTGCGGC [FAM-FGFR-agonist]”: binds.
